# In publication doi:10.1101/2025.01.21.634043:
# Protein sequences, listed by entry. Tags and fused reporters are not part of them.
# UniProt O95292: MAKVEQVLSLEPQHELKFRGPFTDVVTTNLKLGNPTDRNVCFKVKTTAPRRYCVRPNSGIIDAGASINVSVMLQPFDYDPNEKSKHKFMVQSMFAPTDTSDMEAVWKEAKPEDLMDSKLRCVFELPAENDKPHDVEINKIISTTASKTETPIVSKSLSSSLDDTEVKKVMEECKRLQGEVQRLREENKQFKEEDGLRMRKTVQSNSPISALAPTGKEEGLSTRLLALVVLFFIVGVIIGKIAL
# UniProt O00429: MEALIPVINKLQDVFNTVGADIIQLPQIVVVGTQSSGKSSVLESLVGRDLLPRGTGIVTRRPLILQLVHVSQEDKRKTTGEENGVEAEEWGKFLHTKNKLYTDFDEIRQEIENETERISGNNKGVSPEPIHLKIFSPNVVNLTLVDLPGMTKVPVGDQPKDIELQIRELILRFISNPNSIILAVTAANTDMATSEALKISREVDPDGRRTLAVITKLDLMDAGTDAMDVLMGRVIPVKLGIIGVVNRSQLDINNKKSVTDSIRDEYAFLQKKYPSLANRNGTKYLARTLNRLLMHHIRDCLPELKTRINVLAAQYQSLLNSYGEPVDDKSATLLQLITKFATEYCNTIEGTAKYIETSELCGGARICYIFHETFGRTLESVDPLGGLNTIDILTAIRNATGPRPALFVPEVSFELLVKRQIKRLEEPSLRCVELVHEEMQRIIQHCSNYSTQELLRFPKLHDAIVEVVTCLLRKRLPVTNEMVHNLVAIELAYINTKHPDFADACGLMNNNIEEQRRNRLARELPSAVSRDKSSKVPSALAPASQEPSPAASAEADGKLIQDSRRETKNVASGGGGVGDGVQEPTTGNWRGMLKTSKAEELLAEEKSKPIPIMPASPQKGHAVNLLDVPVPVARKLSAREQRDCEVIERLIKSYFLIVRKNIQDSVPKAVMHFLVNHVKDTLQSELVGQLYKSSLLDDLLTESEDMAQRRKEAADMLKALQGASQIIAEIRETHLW
# These are yes or no findings as the source states them, for the method shown. In cells and extracts the contact can be indirect. Some binding calls cover weakened binding; strength is not graded here. Where a sequence is shown, tags or fusion partners need not be part of it.
# T1: mycACBD5 (human) (UniProt Q5T8D3)
# T1 sequence: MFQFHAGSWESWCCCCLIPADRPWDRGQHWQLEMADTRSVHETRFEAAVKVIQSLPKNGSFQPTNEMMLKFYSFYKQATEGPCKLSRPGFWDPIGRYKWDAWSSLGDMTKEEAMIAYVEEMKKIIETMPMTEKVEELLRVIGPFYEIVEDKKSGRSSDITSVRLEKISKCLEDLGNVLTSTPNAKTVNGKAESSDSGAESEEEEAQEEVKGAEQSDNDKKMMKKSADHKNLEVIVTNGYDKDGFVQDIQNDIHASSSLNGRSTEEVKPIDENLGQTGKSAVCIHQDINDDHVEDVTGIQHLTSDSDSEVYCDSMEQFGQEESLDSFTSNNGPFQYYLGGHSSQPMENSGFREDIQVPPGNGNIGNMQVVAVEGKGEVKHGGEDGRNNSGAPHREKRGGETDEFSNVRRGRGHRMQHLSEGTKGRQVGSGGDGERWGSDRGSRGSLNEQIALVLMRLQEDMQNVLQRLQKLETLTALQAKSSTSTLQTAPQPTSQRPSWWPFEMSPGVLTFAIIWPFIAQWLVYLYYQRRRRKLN
# T2: mycPEX11b (human) (UniProt O96011)
# T2 sequence: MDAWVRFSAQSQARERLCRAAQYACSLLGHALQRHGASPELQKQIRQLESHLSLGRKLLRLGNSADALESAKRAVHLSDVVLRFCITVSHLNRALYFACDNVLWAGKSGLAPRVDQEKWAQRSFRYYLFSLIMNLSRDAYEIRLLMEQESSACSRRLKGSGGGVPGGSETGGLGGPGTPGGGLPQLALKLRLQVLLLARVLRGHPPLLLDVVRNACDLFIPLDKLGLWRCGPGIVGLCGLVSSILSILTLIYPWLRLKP
# Molecular target: T1, mycACBD5 (human)
# Experiment: co-IP
row,binding,Molecule
1,binds,GFP-VAPB (from UniProt O95292 1-243)

# Molecular target: T2, mycPEX11b (human)
# Experiment: co-IP
row,binding,Molecule
1,binds,"mCherry-PEX11G (protein, UniProt Q96HA9 1-241) MASLSGLASALESYRGRDRLIRVLGYCCQLVGGVLVEQCPARSEVGTRLLVVSTQLSHCRTILRLFDDLAMFVYTKQYGLGAQEEDAFVRCVSVLGNLADQLYYPCEHVAWAADARVLHVDSSRWWTLSTTLWALSLLLGVARSLWMLLKLRQRLRSPTAPFTSPLPRGKRRAMEAQMQSEALSLLSNLADLANAVHWLPRGVLWAGRFPPWLVGLMGTISSILSMYQAARAGGQAEATTP"
2,binds,"mCherry-PEX19 (protein, UniProt P40855 1-299) MAAAEEGCSVGAEADRELEELLESALDDFDKAKPSPAPPSTTTAPDASGPQKRSPGDTAKDALFASQEKFFQELFDSELASQATAEFEKAMKELAEEEPHLVEQFQKLSEAAGRVGSDMTSQQEFTSCLKETLSGLAKNATDLQNSSMSEEELTKAMEGLGMDEGDGEGNILPIMQSIMQNLLSKDVLYPSLKEITEKYPEWLQSHRESLPPEQFEKYQEQHSVMCKICEQFEAETPTDSETTQKARFEMVLDLMQQLQDLGHPPKELAGEMPPGLNFDLDALNLSGPPGASGEQCLIM"
3,binds,"mCherry-PEX11A (protein, UniProt O75192 1-247) MDAFTRFTNQTQGRDRLFRATQYTCMLLRYLLEPKAGKEKVVMKLKKLESSVSTGRKWFRLGNVVHAIQATEQSIHATDLVPRLCLTLANLNRVIYFICDTILWVRSVGLTSGINKEKWRTRAAHHYYYSLLLSLVRDLYEISLQMKRVTCDRAKKEKSASQDPLWFSVAEEETEWLQSFLLLLFRSLKQHPPLLLDTVKNLCDILNPLDQLGIYKSNPGIIGLGGLVSSIAGMITVAYPQMKLKTR"
4,binds,"mCherry-GDAP1 (protein, UniProt Q8TB36 1-358) MAERQEEQRGSPPLRAEGKADAEVKLILYHWTHSFSSQKVRLVIAEKALKCEEHDVSLPLSEHNEPWFMRLNSTGEVPVLIHGENIICEATQIIDYLEQTFLDERTPRLMPDKESMYYPRVQHYRELLDSLPMDAYTHGCILHPELTVDSMIPAYATTRIRSQIGNTESELKKLAEENPDLQEAYIAKQKRLKSKLLDHDNVKYLKKILDELEKVLDQVETELQRRNEETPEEGQQPWLCGESFTLADVSLAVTLHRLKFLGFARRNWGNGKRPNLETYYERVLKRKTFNKVLGHVNNILISAVLPTAFRVAKKRAPKVLGTTLVVGLLAGVGYFAFMLFRKRLGSMILAFRPRPNYF"
5,binds,"mCherry-MFF (protein, UniProt Q9GZY8 1-342) MSKGTSSDTSLGRVSRAAFPSPTAAEMAEISRIQYEMEYTEGISQRMRVPEKLKVAPPNADLEQGFQEGVPNASVIMQVPERIVVAGNNEDVSFSRPADLDLIQSTPFKPLALKTPPRVLTLSERPLDFLDLERPPTTPQNEEIRAVGRLKRERSMSENAVRQNGQLVRNDSLWHRSDSAPRNKISRFQAPISAPEYTVTPSPQQARVCPPHMLPEDGANLSSARGILSLIQSSTRRAYQQILDVLDENRRPVLRGGSAAATSNPHHDNVRYGISNIDTTIEGTSDDLTVVDAASLRRQIIKLNRRLQLLEEENKERAKREMVMYSITVAFWLLNSWLWFRR"

# Second part, the molecule before the results:
row,Molecule,binding
1,mCherry-DNM1L (from UniProt O00429 1-736),binds
2,"mycPEX11b (protein, UniProt O96011 1-259) MDAWVRFSAQSQARERLCRAAQYACSLLGHALQRHGASPELQKQIRQLESHLSLGRKLLRLGNSADALESAKRAVHLSDVVLRFCITVSHLNRALYFACDNVLWAGKSGLAPRVDQEKWAQRSFRYYLFSLIMNLSRDAYEIRLLMEQESSACSRRLKGSGGGVPGGSETGGLGGPGTPGGGLPQLALKLRLQVLLLARVLRGHPPLLLDVVRNACDLFIPLDKLGLWRCGPGIVGLCGLVSSILSILTLIYPWLRLKP",binds
